PubChem BioAssay AID1259282, Sanger Institute – 2017
Here is an unselected part of 794 deposited reagents. Of all reagents, 11 (1.4%) are marked active. 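Calls flag knock-downs that lower viability without drug; drug synergy appears only in the synergy scores; exposure time not stated.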 No viability above 1 is reported: the scale is capped. The record does not give: the amount of reagent, the time to read-out.

Assay: 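Kinase knock-downs that work with targeted colorectal cancer drugs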 (primary screen)
Cells: DIFI human colorectal cancer cell line
Reagent: siRNA pool against human genes
Treatment: anchor drug at a mild dose (BYL719 1 µM, cetuximab 5 µg/ml, trametinib 10 nM) or DMSO vehicle; exposure time not given
Measurement: 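Robust z-score and replicate-mean viability versus non-targeting pool without drug, plus a synergy score for each low-dose anchor drug (BYL719, cetuximab, trametinib)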
Scale: robust z-score, knock-down alone: higher = more viable cells than typical knock-down; viability, knock-down alone: higher = more viable cells; synergy score with trametinib and synergy score with cetuximab and synergy score with BYL719: higher = stronger combined killing with drug
Call rule: 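a knock-down is called essential if its DMSO robust z-score is under -3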
Meaning of the calls: active = essential (knock-down alone, z below -3); inactive = not essential

target gene | robust z-score, knock-down alone | viability, knock-down alone (fraction of control) | synergy score with trametinib | synergy score with cetuximab | synergy score with BYL719 | outcome
TP53BP1 (tumor protein p53 binding protein 1) | 0.147 | 0.918 | 0.0112 | 0.0883 | -0.133 | inactive
EIF2AK4 (eukaryotic translation initiation factor 2 alpha kinase 4) | 0.715 | 1 | 0.00216 | 0.0571 | -0.298 | inactive
COASY (Coenzyme A synthase) | -1.99 | 0.607 | 0.189 | 0.0574 | 0.241 | inactive
PI4KB (phosphatidylinositol 4-kinase beta) | 0.715 | 1 | -0.0416 | -0.0283 | -0.243 | inactive
PFKP (phosphofructokinase, platelet) | 0.715 | 1 | 0.0898 | 0.0288 | -0.0943 | inactive
PIM1 (Pim-1 proto-oncogene, serine/threonine kinase) | -1.17 | 0.726 | 0.192 | 0.178 | 0.0677 | inactive
STK38L (serine/threonine kinase 38 like) | -0.539 | 0.818 | 0.147 | 0.00693 | -0.124 | inactive
DYRK2 (dual specificity tyrosine phosphorylation regulated kinase 2) | -2.58 | 0.521 | 0.085 | -0.0136 | -0.318 | inactive
CDK14 (cyclin dependent kinase 14) | -0.755 | 0.787 | -0.0131 | -0.156 | -0.143 | inactive
MAP3K3 (mitogen-activated protein kinase kinase kinase 3) | 0.408 | 0.955 | 0.164 | 0.148 | -0.0425 | inactive
TYRO3 (TYRO3 protein tyrosine kinase) | 0.056 | 0.904 | -0.0348 | -0.068 | -0.0481 | inactive
PTK6 (protein tyrosine kinase 6) | 0.715 | 1 | 0.0449 | 0.0279 | -0.139 | inactive
PRKAR1B (protein kinase cAMP-dependent type I regulatory subunit beta) | 0.385 | 0.952 | 0.0519 | -0.00282 | 0.171 | inactive
GNE | 0.304 | 0.94 | 0.0861 | 0.0123 | -0.111 | inactive
ALK (ALK receptor tyrosine kinase) | -1.27 | 0.712 | -0.0108 | 0.00206 | -0.0563 | inactive
KSR2 (kinase suppressor of ras 2) | 0.715 | 1 | 0.0913 | -0.0274 | -0.209 | inactive
CAMK1G (calcium/calmodulin dependent protein kinase IG) | 0.138 | 0.916 | 0.15 | 0.15 | -0.0303 | inactive
MED12 (mediator complex subunit 12) | 0.637 | 0.989 | -0.159 | -0.0343 | -0.00438 | inactive
CSNK1D (casein kinase 1 delta) | 0.476 | 0.965 | 0.0274 | -0.03 | -0.0989 | inactive
IPPK (inositol-pentakisphosphate 2-kinase) | -1.92 | 0.617 | 0.0499 | -0.0249 | -0.00875 | inactive

Single entries from the entries so far.
Under “synergy score with trametinib”, PFKP (phosphofructokinase, platelet) shows 0.0898
Entry for IPPK (inositol-pentakisphosphate 2-kinase) in “synergy score with trametinib”: 0.0499
